This is one part of the list.
The sequences below were run against T1, OsSMF1 (Oryza sativa, UniProt Q6ZLB0 1-436) (assay: protein-binding microarray (RPBM); PBS, 2% BSA, 51.3 ng/ul salmon testes DNA, 50 uM zinc acetate, 200 nM TF, 25 C, 1 h; high values mean tight binding). Details: protein: recombinant; tags: N-terminal polyhistidine and DsRed monomer fusion (pET32a); chain copies: 2; label: CyDye5-dUTP incorporated in the synthesized complementary strand; 3' TTTTT single-stranded linker to array surface; dsDNA, one strand shown.
T1 sequence: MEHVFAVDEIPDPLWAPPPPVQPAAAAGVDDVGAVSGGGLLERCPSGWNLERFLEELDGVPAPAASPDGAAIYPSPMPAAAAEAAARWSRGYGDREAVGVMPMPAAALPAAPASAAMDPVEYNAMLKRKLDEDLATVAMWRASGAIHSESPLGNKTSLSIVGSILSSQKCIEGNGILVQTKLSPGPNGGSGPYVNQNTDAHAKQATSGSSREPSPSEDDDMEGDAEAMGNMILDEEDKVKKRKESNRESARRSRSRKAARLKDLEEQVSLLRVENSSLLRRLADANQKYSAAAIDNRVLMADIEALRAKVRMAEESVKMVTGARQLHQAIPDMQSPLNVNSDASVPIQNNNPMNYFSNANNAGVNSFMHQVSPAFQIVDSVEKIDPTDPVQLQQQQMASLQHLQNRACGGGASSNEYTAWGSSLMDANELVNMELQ
Summary of the method: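 Using Ni–NTA, transcription factors fused N-terminally to polyhistidine and DsRed were purified after expression in E. coli BL21-CodonPlus. These were incubated at 200 nM with a blocked, double-stranded custom Agilent array for 1 h at 25 °C in a buffer containing 50 µM zinc acetate, and the array was washed. The binding signal is per-feature fluorescence intensity (arbitrary units) on an Axon 4000B scanner.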

Sequence	binding signal
GAACCCGATCAGCAGCCGTGCACGTGTCCCATACGCCGTTCGGAGTCACCTAGTGCAG	5170 fluorescence intensity (a.u.)
CCTCACACGATCACATTCGTGACTCACTCGAAAGAGAAAGCGGAGTCACCTAGTGCAG	3340 fluorescence intensity (a.u.)
TAGACATCTCAGCGCCACGTTAGCTGGCGCTGAATGCGGTCGGAGTCACCTAGTGCAG	8720 fluorescence intensity (a.u.)
CTCTCTCTCTCTCTCTCTCTCTCTCTTGCCATTTAAAAGACGGAGTCACCTAGTGCAG	4760 fluorescence intensity (a.u.)
ATAGAGGGAGCTTCACCTGTTGCTTTGCGCCACGTGTCATCGGAGTCACCTAGTGCAG	28400 fluorescence intensity (a.u.)
TTACGATATAGTGTGCCAATTGGCACACCTACATTTTAGTCGGAGTCACCTAGTGCAG	45700 fluorescence intensity (a.u.)
AATTGTTACATGTATATATGTGTCACGTTGGATGATGTTTCGGAGTCACCTAGTGCAG	8320 fluorescence intensity (a.u.)
ACAATTCTTTATCGATGGGTTAAGTTAAACCTGACGTATTCGGAGTCACCTAGTGCAG	3660 fluorescence intensity (a.u.)
TCCCTGTCCTGCAAGATTCGGCACGCAGAAAACGTTCGATCGGAGTCACCTAGTGCAG	35600 fluorescence intensity (a.u.)
TTCATGCGCCCACATGACGTAGTGAATTAGTGGACTATGTCGGAGTCACCTAGTGCAG	4570 fluorescence intensity (a.u.)
GTCATACATTAAAATACGGAGGGAGTATTACACATTGGATCGGAGTCACCTAGTGCAG	3940 fluorescence intensity (a.u.)
AAAATGCCACATCGGTATGCCGCATCTTCGTTGCAATCTTCGGAGTCACCTAGTGCAG	6330 fluorescence intensity (a.u.)
TGAACACATCAGTAAACATATTACTACACGGTGGCTATTACGGAGTCACCTAGTGCAG	4140 fluorescence intensity (a.u.)
ACAGATAGAGGCCATTAGACTGTGTACAAGAGCTGAGTCACGGAGTCACCTAGTGCAG	10000 fluorescence intensity (a.u.)
ACAGCTCCAACTCCTAAATATAACTCCAGGAGTTGAGTCTCGGAGTCACCTAGTGCAG	26200 fluorescence intensity (a.u.)
CTGTTTCTAACGATGGCACGTATACAAATTTGTCTGGCTCCGGAGTCACCTAGTGCAG	4800 fluorescence intensity (a.u.)
AAATGTTTAGGGGAATGCTACATGACGGTATCTCGTTCAGCGGAGTCACCTAGTGCAG	3520 fluorescence intensity (a.u.)
GTCAAATCACCTGGCCTTGGGCTGGGTCATATGACCATCTCGGAGTCACCTAGTGCAG	3200 fluorescence intensity (a.u.)
TTGGAGTCGTGTGTTCGATCGCCGCGCTATCCACGTCGCCCGGAGTCACCTAGTGCAG	4220 fluorescence intensity (a.u.)
TTCTTTCTGCTACGAACAAATGTTCACCACTGTAGCCACTCGGAGTCACCTAGTGCAG	3230 fluorescence intensity (a.u.)
GTCATGTCTACGTGTCGCGCTCCAGTTCGCCGCCCACCACCGGAGTCACCTAGTGCAG	13600 fluorescence intensity (a.u.)

Sequence	binding signal
GCTAGACGGTTGTGGCGTTACGTCATGGCGATCGACTATGCGGAGTCACCTAGTGCAG	6430 fluorescence intensity (a.u.)
GAAAATGGGTTTAAACAATTAAAGAGTGTGGTCCATATGACGGAGTCACCTAGTGCAG	30200 fluorescence intensity (a.u.)
TGTTTCGATTATTCCTTTTGTCTGACGTACACAGTGCATGCGGAGTCACCTAGTGCAG	5420 fluorescence intensity (a.u.)
AAGCGAGTTGCACACCACGTTGGATTAGATCCTACTAACCCGGAGTCACCTAGTGCAG	3730 fluorescence intensity (a.u.)
TGAAAGGGTTGCACGCACGATTTCCACGCACGCGTACGTGCGGAGTCACCTAGTGCAG	4420 fluorescence intensity (a.u.)
CTATATGGAGGTAGTAAATCACATGGACCAATCAGATGGTCGGAGTCACCTAGTGCAG	19100 fluorescence intensity (a.u.)
CTTGTTGACATTCTTTGGTGAGTTTGTCATGGTCTAAAATCGGAGTCACCTAGTGCAG	3440 fluorescence intensity (a.u.)
TATTTGAAAATCGTAACTCCATCCTCTACGTGTGTATGACCGGAGTCACCTAGTGCAG	3140 fluorescence intensity (a.u.)
GAAACTCTAAATCTGCCATTACCCCAAGTACATCATTAGTCGGAGTCACCTAGTGCAG	3310 fluorescence intensity (a.u.)
AATCAAATCCAGCTGACGCGGTGTCCATCAATTAATAACACGGAGTCACCTAGTGCAG	33700 fluorescence intensity (a.u.)
ATTGAGATATAGATAGATAGAAACGATGCTGCGTCATCGCCGGAGTCACCTAGTGCAG	11000 fluorescence intensity (a.u.)
GTTGACATATGGATCCTGGTGTTATCGACTCAATGTAGAGCGGAGTCACCTAGTGCAG	5150 fluorescence intensity (a.u.)
TTTCAGTGGTCCAAAACCGATGTGTCATATGTTGTACCAACGGAGTCACCTAGTGCAG	4580 fluorescence intensity (a.u.)
TAAACTTGATATTGTAAACGTTTGCATATTTTATGTAAATCGGAGTCACCTAGTGCAG	14500 fluorescence intensity (a.u.)
ACGTATATTCACAATTAAATGTGTTTCTTTCATTGTAACACGGAGTCACCTAGTGCAG	15700 fluorescence intensity (a.u.)
GAGCTGGGGCGAGGCGTGACGTGGCGCTTTAATGGGCGTGCGGAGTCACCTAGTGCAG	10600 fluorescence intensity (a.u.)
GATGGATTTAGGCCCACCTGTCAGTGGTAATTTTCTATGACGGAGTCACCTAGTGCAG	3150 fluorescence intensity (a.u.)
CAACTGGCCATGTATGCACATGCACCCCAGAGACAACCTACGGAGTCACCTAGTGCAG	3420 fluorescence intensity (a.u.)
GGGACACGTACGAAGCTGACGTGGCGATCGATCTGACGAACGGAGTCACCTAGTGCAG	11500 fluorescence intensity (a.u.)
ATCACTTCATTATCACATGACAGACCAACATATAATGATGCGGAGTCACCTAGTGCAG	44500 fluorescence intensity (a.u.)
CGGGTGGTAGCGGCCTCTCCCCGGCGGCAGCTCGTCCATGCGGAGTCACCTAGTGCAG	13400 fluorescence intensity (a.u.)

Sequence	binding signal
ACTCTCGTCCTCGAAGGTGGCGCCATTGGTGCCGTAGGAACGGAGTCACCTAGTGCAG	4250 fluorescence intensity (a.u.)
GAGGAGCGGATGTCCGTCATCCCCTCCGGCAGCATTCGGACGGAGTCACCTAGTGCAG	3480 fluorescence intensity (a.u.)
CTCTCCTCTTCCTCCTCCTCCGCTTGATCTGGGGTGGGGTCGGAGTCACCTAGTGCAG	3440 fluorescence intensity (a.u.)
ACCGCGATCGCTTCGTCAAATCCGCGCGCGCGTCGTGTCGCGGAGTCACCTAGTGCAG	4440 fluorescence intensity (a.u.)
AATCTACTCCGGACGAGGAGTAATTTGGAGCGTGACAAGCCGGAGTCACCTAGTGCAG	23800 fluorescence intensity (a.u.)
CTGATCTCGCCGTCCCGAGTTCGCCGGACACGCACGCACGCGGAGTCACCTAGTGCAG	20600 fluorescence intensity (a.u.)
CCATGAGGCCATGACATCAAAATACTTCCAACGCAGCAAACGGAGTCACCTAGTGCAG	3500 fluorescence intensity (a.u.)
CTTGGGCGCATGTGTGTCACCCTCTCCTTCCATTGATCCTCGGAGTCACCTAGTGCAG	4590 fluorescence intensity (a.u.)
GATTCGGAGAATGGCCACGCGTCCCTCGCCACGTCCGATTCGGAGTCACCTAGTGCAG	9490 fluorescence intensity (a.u.)
CAGCTGAACCATGGAAGGGAGCTACATGCAGCGCTTCTGACGGAGTCACCTAGTGCAG	3200 fluorescence intensity (a.u.)
TTGTCGCTCCTCATCCCCGTCACCGAACTGTTGCCGCAACCGGAGTCACCTAGTGCAG	4980 fluorescence intensity (a.u.)
TTCTCATCACGGTAAATTCAGCAAGTTCAGGCAACAATTGCGGAGTCACCTAGTGCAG	38000 fluorescence intensity (a.u.)
CGCTCCCGCCACCGCCACATCCCTCGCCGCCGCTTCGCCTCGGAGTCACCTAGTGCAG	4710 fluorescence intensity (a.u.)
GGCACCACGCAGTTGTACACAGTTGTACGCGTCGTCGTGCCGGAGTCACCTAGTGCAG	4190 fluorescence intensity (a.u.)
CATGTTGTAGCACATTTGGCATCTCTCCAGTAATGACTAACGGAGTCACCTAGTGCAG	4540 fluorescence intensity (a.u.)
ATTTTATTTGTGATGTTGTGAATGAATCTACTACATATGTCGGAGTCACCTAGTGCAG	3210 fluorescence intensity (a.u.)
CAATCGTTCGGTTTGGTGCACAAGAATTCCTGCAACAGTACGGAGTCACCTAGTGCAG	3210 fluorescence intensity (a.u.)
AAGGCTGGAATAATACAGTAGTTGACTGACTCGGTCTCCTCGGAGTCACCTAGTGCAG	3420 fluorescence intensity (a.u.)
GCATGACGTACGCTTCGTGACGTAAGGCCTCATGCCCTATCGGAGTCACCTAGTGCAG	13500 fluorescence intensity (a.u.)
CCGCCACACCCGCAACCCTAGATAGCAGCGTGCGCCCTTCCGGAGTCACCTAGTGCAG	25400 fluorescence intensity (a.u.)
CCAATATATAATTGCCACGTCATCGCCGCGTCAATGCCACCGGAGTCACCTAGTGCAG	28100 fluorescence intensity (a.u.)

Sequence	binding signal
GTCGAAATGAAGGGGAGGGAGAGACTGACGTGTGGTCCCTCGGAGTCACCTAGTGCAG	8650 fluorescence intensity (a.u.)
CGGTGGTCGACGGAGACAGGGACCGAAACGCGTGGCGTCGCGGAGTCACCTAGTGCAG	5260 fluorescence intensity (a.u.)
CAAACAATACGCGTACCCACGTGGCCAGGTACACGTTACGCGGAGTCACCTAGTGCAG	11500 fluorescence intensity (a.u.)
GACGAAGCTCTTGATGGCGTCGACGAGCTCCCGGGTCCTCCGGAGTCACCTAGTGCAG	3320 fluorescence intensity (a.u.)
CCTCACTCTACCCAACACCCACAGACACGTGGGACCCACGCGGAGTCACCTAGTGCAG	8010 fluorescence intensity (a.u.)
TATATAAACTTTATATACGTCATATACAAACTTTGTATATCGGAGTCACCTAGTGCAG	3520 fluorescence intensity (a.u.)
GTGAGAATTTCTAGGCCATGAGAGCGAACGTGGAGGATTCCGGAGTCACCTAGTGCAG	3570 fluorescence intensity (a.u.)
GCGTCGCCTGGTGGCGTAGCTATCCATGACCGCGCACACGCGGAGTCACCTAGTGCAG	3320 fluorescence intensity (a.u.)
TCACCGCGAGCCGCCGCCAGTGTGATCACTCTAACATTGGCGGAGTCACCTAGTGCAG	29900 fluorescence intensity (a.u.)
TCACGCTGACCAAACACCATCTGTTATTCTGTTTGTTTGTCGGAGTCACCTAGTGCAG	3640 fluorescence intensity (a.u.)
CGTACATCGACTTGGGCAGCGACACGTGTCGTTTCGTTTGCGGAGTCACCTAGTGCAG	15300 fluorescence intensity (a.u.)
AGGATACACACATCACTCTAATCCTCCATTACCTATGACACGGAGTCACCTAGTGCAG	4780 fluorescence intensity (a.u.)
GTGTCGCCGTGTGTGTACAAATAATATGCCAACCTGGCCGCGGAGTCACCTAGTGCAG	4000 fluorescence intensity (a.u.)
ACGAACTTGAGAATGATGGGTGGGTGAAACGTGTGAGCTCCGGAGTCACCTAGTGCAG	4030 fluorescence intensity (a.u.)
CGCGTCGTCGTGGACTCGTGGCGCCCATGTCGCGTCGCGGCGGAGTCACCTAGTGCAG	3750 fluorescence intensity (a.u.)
CGCGTTTATACTGTGTGTAAATGGTGTTTGGCCACGACATCGGAGTCACCTAGTGCAG	3520 fluorescence intensity (a.u.)
TGCACTATGCACTGCATCCGTCAAAGGCGCCGCACGTGGCCGGAGTCACCTAGTGCAG	3510 fluorescence intensity (a.u.)
CCGCCAAACAGAGTGTTGGAAGGTGCCGCTCTGCCCTGTTCGGAGTCACCTAGTGCAG	3280 fluorescence intensity (a.u.)
CACGCGCATCCACGCAAACCCTACCAGCCTCTCTCTCCCGCGGAGTCACCTAGTGCAG	3760 fluorescence intensity (a.u.)
ACATACCTTCAGATGACGCGGGGCGTCGGCGGTCGAGGGTCGGAGTCACCTAGTGCAG	3830 fluorescence intensity (a.u.)
GGGAACATTGTGTGCCAAAATTGACTCACGAATATACAAGCGGAGTCACCTAGTGCAG	3340 fluorescence intensity (a.u.)

Source: PMC7819943, “Rice protein-binding microarrays: a tool to detect cis-acting elements near promoter regions in rice”
